The record followed here is publication PMC10163288.

The chains are these.
B1: il2ra_site1_1z92_normal_mot_HHH_b1_01831_000000045_0001_1_20_H_._3081a8c01baa413037e3e0772bd3c5f5_0001_0001_0000200028_0000001_0_af2pred_0001_af2pred (protein)
chain: SETEEELREAVEKNDPELLEEIFRLAERDAGNPELAEQFLKIALKKLGVPPEEIERILELVKELT
B2: il2ra_site2_2erj_normal_mot_HHH_b1_02757_000000121_0001_41_57_H_._HHH_b2_00384_0001_0000100002_0000001_0_af2pred_0001_1_af2pred_swapped (protein)
chain: SSSSSDEEELERRVEELLEEAKRIPDPREAMKLLQEASELAAKNNDEELLELVLRVFREASSSSS
B3: il2ra_site2_3nfp_sap_4_mot_HHH_b2_00168_000000180_0001_1_21_H_._HHH_b2_05578_af2_0001_0000500013_0000001_0_0001 (protein)
chain: SSSSDDVEEYLRAALALAREAIKQGDEELAEKILEMIRKAAEDAKDEEALEEAEELLKLVGSSSS
B4: il2ra_site1_1z92_sap_13_mot_0152819cca26c81f8eead0111e16a660_0001_000000247_0001_36_50_H_._HHH_b1_05979_0001_0000200015_0000001_0_0001 (protein)
chain: SSSSDRAARWALRLARAAVRLNNEEQLRFLFEDVELHLERTGDPEVEEILEEIEELIQLLSSSSS
B5: il2ra_site1_1z92_sap_20_mot_0152819cca26c81f8eead0111e16a660_0001_000000247_0001_36_50_H_._HHH_b2_05380_0002_0000200026_0000001_0_0001 (protein)
chain: SSSSSDIREWIEELAELLAERYKRANDPKTRRLIEWLLRQARLEGDPELEEIIEQLLRELSSSSS
B6: il2ra_site1_2b5i_sap_8_mot_HHH_b2_05260_af2_000000278_0001_1_17_H_._HHH_b1_07568_af2_0001_0000200023_0000001_0_0001_af2pred_dldesign_0_af2pred (protein)
chain: SSSSSSSEASRRARQLFLEAENVSEEEAKKLLEEALRVARAGGDARLAAAIERILESLSSSSSSS
B7: il2ra_site2_3nfp_normal_mot_HHH_b2_05605_000000133_0001_1_20_H_._HHH_b1_03122_0001_0000900026_0000001_1 (protein)
chain: SSSSNEEHERLWELAREAFELLEEGNPEEAEEVLEEARELAERLDNRSALRSIEELLKDLNSSSS
B8: il2ra_site1_1z92_sap_11_mot_HHH_b1_04488_000000139_0001_42_58_H_._HHH_b2_08307_af2_0001_0000200009_0000001_0_0001 (protein)
chain: DESMRRDLERSRELGFPPEQAVRAVIRAIADIDRVPPEEAAEILLEVLEKLGDPELAEIAEELTP
B9: il2ra_site2_2erj_sap_32_mot_67015be16ebd8dbc84c30b734c1036f2_0001_000000253_0001_18_33_H_._HHH_b2_02893_0001_0000300012_0000001_1_0001 (protein)
chain: SSSSDEVHRLYELLEELLRLLHEGDPEEIEELTEEVEKLAREAQSPNAEEVAEWILRRARSSSSS
B10: il2ra_site2_3nfp_sap_21_mot_HHH_b1_05400_af2_000000127_0001_43_57_H_._49468d6c54d8157f7969f91124172a68_0001_0001_0000200005_0000001_0_0001 (protein)
chain: SSSSSSDEEEELARELEELAEEIEDEQAREYVEALAKLLEETGDPRLREAARLAQWAHSSSSSSS
B11: il2ra_site2_2erj_sap_16_mot_HHH_b1_08207_af2_000000250_0001_43_57_H_._HHH_b1_04144_af2_0001_0000200007_0000001_1_0001 (protein)
chain: SSSSDLTMFAFRLVSRLTQELGLDAQQAAELFEFALELFERGVSEEEIKELVEELAEKLRGSSSS
B12: il2ra_site1_1z92_sap_16_mot_3afbd42359c492d9a5ba12d7e5b15de5_0001_000000167_0001_17_33_H_._HHH_b2_04284_0001_0000300007_0000001_1_0001_af2pred_0001_af2pred_1_sw … (protein)
chain: DEEIERLLREILEESNGNPEVAERELRIIRELAGGDPERVARIVAKLLRAQGDPEATEKVEELLK
B13: il2ra_site1_3nfp_normal_mot_ems_3hC_775_af2_000000149_0001_42_60_H_._HEEHE_2118_af2_0001_0000200016_0000001_0 (protein)
chain: DREEAFKEAVERLAEIAGVPHVEVEVSNGKVHVTFSGDDSQARHASKLVERAAESRGIKVEVEVE
B14: il2ra_site2_2erj_sap_20_mot_c2dd1dc352432ff47dded349a4d391fc_0001_1_000000244_0001_1_14_H_._HHH_b2_04613_af2_0001_0000100001_0000001_0_0001_af2pred_0001_1_af2pr … (protein)
chain: SSSSSDQEERIVEELIKELGGSEEDEEEARRSAKNARESGYSKESIEWYLRAAIEANLSKSSSSS
B15: il2ra_site2_3nfp_normal_mot_cd0404b092e50786c9feee19bb04a385_0001_af2_000000191_0001_16_31_H_._HHH_b2_06650_0001_0000100001_0000001_0_af2pred_0001_af2pred_1 (protein)
chain: SSSSSEEVKEALRLASELARRLYEEGDEETALELLELARRLKEEGDPELARELLEFVEEFSSSSS
B16: il2ra_site2_3nfp_sap_14_mot_HHH_b2_06150_000000230_0001_39_53_H_._HHH_b2_03345_af2_0001_0000700020_0000001_0_0001_af2pred_0001_1_af2pred_swapped (protein)
chain: DLREVLEELLEEGDPKLLEEALMLALKLLEEDPNDEKARRISNLLAEYDAEGDPRAIEEALEIAR
B17: il2ra_site1_3nfp_sap_21_mot_ems_3hC_3_0002_000000237_0001_23_41_H_._HHH_b2_07018_0001_0000100001_0000001_0_0001 (protein)
chain: DVVEELEELLEELGVPPKEIKTIAWYLRVAAETLGDPKEALKRLLEDARKIGNPEAEEVVELLLK
B18: il2ra_site1_3nfp_sap_15_mot_HHH_b1_04357_000000099_0001_1_19_H_._HHH_b1_03761_0001_0000500037_0000001_0_0001_af2pred_0001_af2pred_swapped (protein)
chain: PERLLEELLELAKRDPDPEVREIVEEVEEVLKRDPEEALELLLELLRELGDPAAVRLVELLLRLL
B19: il2ra_site2_3nfp_sap_13_mot_HHH_b2_00482_000000184_0001_1_21_H_._49678f45da0a336f03cbe5a93813d6e2_0001_1_af2_0001_0000300012_0000001_0_0001_af2pred_0001_af2pred (protein)
chain: SSSSSSSDEEEVEELLEEAKRIDDEFEFFAVLALAVEIALRSDNEELEKLVKEVSRKKRSSSSSS
B20: il2ra_site1_2b5i_sap_19_mot_896e48d2d441ca48be90d8e148bbf30e_0001_1_af2_000000028_0001_35_48_H_._HHH_b2_01204_af2_0001_0000100007_0000001_0_0001_af2pred_dldesig … (protein)
chain: SSSSSDLEAEAEAALAKARELKEAGKRREALEELEKIAKKLDENDDEELLARVEELAKELSSSSS
B21: il2ra_site2_3nfp_sap_18_mot_ems_p1-15H-GBL-16H-GBL-14H_0089_0001_0001_0001_af2_000000072_0001_19_33_H_._HHH_b1_06056_0001_0000300024_0000001_0_0001 (protein)
chain: SSSSSSDHEAYEKVVELLKEASQIEDPEERREVLEEARELAEEARSPVLRRSVEFVAEALSSSSS
B22: il2ra_site1_1z92_normal_mot_934a834d9b8b770824478def2ff2f329_0001_af2_000000088_0001_15_30_H_._962fa67eee94b9f6762fa8d12b0fa7b0_0001_1_af2_0001_0000100002_00000 … (protein)
chain: SELEEALQILLEKTGDPLLRILLEMVRRALEQGHSDPEAILRDIRKFLEFAGNPELAKELEELFK
B23: il2ra_site2_2erj_normal_mot_HHH_b1_08231_000000000_0001_20_37_H_._HHH_b1_05068_af2_0001_0000400013_0000001_0 (protein)
chain: SSSSDLEEEVERLIKQAEELLEEGNPEEAEELLSEAFTLAYEANDPRLAALVIELMHLVARSSSS
B24: il2ra_site2_3nfp_sap_14_mot_HHH_b2_00746_000000285_0001_20_36_H_._HHH_b2_02385_af2_0001_0000500019_0000001_0_0001 (protein)
chain: SSSSDEEAQELLEEAKELLKDEELREEAEQALLRAAALAWEEGDFELYMEIAELAFEVVQSSSSS

Some of the results follow.

The experiment has as its target il2ra, P01589. As to the kind of experiment: yeast display titration.
B1: the “apparent Kd” value is “inactive: no binding seen”.
With B2, the “apparent Kd” value is “inactive: no binding seen”.
The same measure for B3: “inactive: no binding seen”; for B4: “inactive: no binding seen”; for B5: “inactive: no binding seen”.
As to B6, the “apparent Kd” value was “inactive: no binding seen”.
On to B7, for which the “apparent Kd” value is “inactive: no binding seen”.
For B8 the value was “inactive: no binding seen”.
For B9 the value was “inactive: no binding seen”.
The same measure for B10: “inactive: no binding seen”.
As for B11, the “apparent Kd” value was “inactive: no binding seen”.
The same measure for B12: “inactive: no binding seen”; for B13: “inactive: no binding seen”.
Consider B14, for which the “apparent Kd” value was “inactive: no binding seen”.
In the case of B15, the “apparent Kd” value was “inactive: no binding seen”.
On to B16, for which the “apparent Kd” value is “inactive: no binding seen”.
The same measure for B17: “inactive: no binding seen”; for B18: “inactive: no binding seen”; for B19: “inactive: no binding seen”.
Take B20: the “apparent Kd” value was “inactive: no binding seen”.
With B21, the “apparent Kd” value is “inactive: no binding seen”.
On to B22, for which the “apparent Kd” value was “inactive: no binding seen”.
The same measure for B23: “inactive: no binding seen”; for B24: “inactive: no binding seen”.
